Measurements from PMC11464762, “AXIN1 boosts antiviral response through IRF3 stabilization and induced phase separation” (Signal Transduction and Targeted Therapy, 2024).
These are yes or no findings as the source states them, for the method shown. In cells and extracts the contact can be indirect. Some entries that bind do so weakly or less than the wild type. For part of these data: Where a sequence is shown, tags or fusion partners need not be part of it. Blank lines part the entries; values can stand above or below the molecule they belong to.

By UniProt entry, the sequences of proteins in these tests, tags left out. Where a name states a change or a piece, a line headed by the entry shows the natural chain unless it says otherwise.
UniProt O15169: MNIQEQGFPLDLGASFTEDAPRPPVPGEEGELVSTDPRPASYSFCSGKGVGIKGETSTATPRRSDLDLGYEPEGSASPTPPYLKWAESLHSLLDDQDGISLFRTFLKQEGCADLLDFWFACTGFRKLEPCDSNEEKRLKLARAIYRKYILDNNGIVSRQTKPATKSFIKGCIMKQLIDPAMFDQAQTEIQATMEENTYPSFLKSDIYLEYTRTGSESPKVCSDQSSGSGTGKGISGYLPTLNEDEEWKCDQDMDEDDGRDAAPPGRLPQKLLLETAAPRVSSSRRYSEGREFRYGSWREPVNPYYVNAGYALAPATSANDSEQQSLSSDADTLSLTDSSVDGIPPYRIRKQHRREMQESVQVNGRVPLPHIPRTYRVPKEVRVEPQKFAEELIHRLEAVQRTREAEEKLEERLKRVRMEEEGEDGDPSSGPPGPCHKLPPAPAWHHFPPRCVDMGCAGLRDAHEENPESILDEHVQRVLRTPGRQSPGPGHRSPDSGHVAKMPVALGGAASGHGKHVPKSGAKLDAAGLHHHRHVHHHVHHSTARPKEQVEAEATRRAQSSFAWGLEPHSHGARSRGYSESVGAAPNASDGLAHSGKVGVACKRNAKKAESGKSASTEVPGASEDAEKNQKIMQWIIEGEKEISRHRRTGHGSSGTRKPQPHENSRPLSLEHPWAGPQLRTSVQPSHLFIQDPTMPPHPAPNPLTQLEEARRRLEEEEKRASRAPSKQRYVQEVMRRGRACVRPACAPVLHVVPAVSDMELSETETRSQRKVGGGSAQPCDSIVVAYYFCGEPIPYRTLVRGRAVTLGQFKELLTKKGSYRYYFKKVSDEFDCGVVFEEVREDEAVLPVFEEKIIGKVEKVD

How the values were obtained:
[1] = biological target: T1, Flag-TBK1 (TANK-binding kinase 1) (UniProt Q9UHD2); experiment: co-IP; HEK293T cells transfected with tagged plasmids for 36 h; lysis buffer 50 mM HEPES pH 7.4, 150 mM NaCl, 5 mM EDTA, 0.1% NP40; anti-Flag M2 or anti-c-myc agarose overnight at 4 °C; immunoblot; in some panels with Myc-AXIN1 co-expressed or 12 μM KYA1797K for 12 h
T1 sequence: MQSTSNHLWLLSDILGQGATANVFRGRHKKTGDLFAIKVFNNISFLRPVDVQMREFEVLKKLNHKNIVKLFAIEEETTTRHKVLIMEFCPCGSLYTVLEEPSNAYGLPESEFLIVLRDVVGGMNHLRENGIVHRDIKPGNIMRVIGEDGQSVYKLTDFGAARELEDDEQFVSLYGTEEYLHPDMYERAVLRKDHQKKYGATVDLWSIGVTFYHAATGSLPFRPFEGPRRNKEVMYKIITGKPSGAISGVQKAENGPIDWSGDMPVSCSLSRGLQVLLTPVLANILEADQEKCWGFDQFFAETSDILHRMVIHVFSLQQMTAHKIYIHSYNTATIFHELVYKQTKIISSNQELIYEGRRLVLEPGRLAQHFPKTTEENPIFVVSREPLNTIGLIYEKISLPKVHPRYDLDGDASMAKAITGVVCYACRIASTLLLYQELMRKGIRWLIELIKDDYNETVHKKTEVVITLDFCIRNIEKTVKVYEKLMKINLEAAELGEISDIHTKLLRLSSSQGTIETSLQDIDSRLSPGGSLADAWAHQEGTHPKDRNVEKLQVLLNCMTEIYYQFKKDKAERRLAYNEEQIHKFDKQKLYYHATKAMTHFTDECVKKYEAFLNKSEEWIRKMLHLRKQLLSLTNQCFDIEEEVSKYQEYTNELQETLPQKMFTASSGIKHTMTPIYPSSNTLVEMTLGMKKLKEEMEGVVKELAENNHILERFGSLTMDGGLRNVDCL

Flag-IRF3 = biological target: T2, Flag-IRF3 (UniProt Q14653); experiment: as above
T2 sequence: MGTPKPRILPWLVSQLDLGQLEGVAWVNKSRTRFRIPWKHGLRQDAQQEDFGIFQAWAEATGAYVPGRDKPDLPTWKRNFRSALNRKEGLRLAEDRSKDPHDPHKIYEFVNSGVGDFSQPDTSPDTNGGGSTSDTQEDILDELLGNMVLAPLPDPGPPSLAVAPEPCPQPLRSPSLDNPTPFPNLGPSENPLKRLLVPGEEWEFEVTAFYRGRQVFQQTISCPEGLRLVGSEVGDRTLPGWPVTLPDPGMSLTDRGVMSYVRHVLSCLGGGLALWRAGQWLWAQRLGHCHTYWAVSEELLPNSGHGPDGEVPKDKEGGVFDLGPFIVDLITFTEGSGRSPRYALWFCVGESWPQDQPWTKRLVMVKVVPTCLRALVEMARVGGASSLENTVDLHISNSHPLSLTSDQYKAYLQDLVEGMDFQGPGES

[2] = biological target: T3, IRF3 (as used in the co-immunoprecipitations of the supplementary figures) (UniProt Q14653); experiment: co-IP
T3 sequence: T2 sequence

[3] = biological target: Flag-AXIN1 (axis inhibition protein 1) (UniProt O15169); experiment: co-IP; HEK293T cells transfected with tagged plasmids for 36 h; lysis buffer 50 mM HEPES pH 7.4, 150 mM NaCl, 5 mM EDTA, 0.1% NP40; anti-Flag M2 or anti-c-myc agarose overnight at 4 °C; immunoblot; in some panels with Myc-AXIN1 co-expressed or 12 μM KYA1797K for 12 h
Flag-p62 = Flag-p62 (UniProt Q13501); experiment: as above
[4] = biological target: p62 (as used in the co-immunoprecipitations of the supplementary figures) (UniProt Q13501); experiment: co-IP
[5] = biological target: AXIN1 (as used in the co-immunoprecipitations of the supplementary figures) (UniProt O15169); experiment: co-IP
[6] = biological target: endogenous p62 (human (endogenous in THP-1)) (UniProt Q13501); experiment: co-IP; endogenous proteins; 8 × 10^6 THP-1 cells in 1 mL lysis buffer (50 mM HEPES pH 7.4, 150 mM NaCl, 5 mM EDTA, 0.1% NP40)

Molecule: HA-AXIN1 (from UniProt O15169 1-862)
binding [1]: binds

Molecule: Myc-AXIN1 (from UniProt O15169 1-862)
binding (Flag-IRF3): binds

Molecule: AXIN1 N-terminus (aa 1–211) (from UniProt O15169 1-211) (domain or fragment)
binding [2]: binds

B1: HA-IRF3 (interferon regulatory factor 3) (protein, UniProt Q14653 1-427)
chain: T2 sequence
binding [3]: binds

B3: IRF3 (as used in the co-immunoprecipitations of the supplementary figures) (protein, UniProt Q14653 1-427)
chain: T2 sequence
binding [4]: binds
binding [5]: binds

B4: GFP-IRF3 (protein, UniProt Q14653 1-427)
chain: T2 sequence
binding (Flag-p62): binds

The next lines start with the values.

binding (Flag-p62): binds
B2: Myc-IRF3 (protein, UniProt Q14653 1-427)
chain: T2 sequence

binding [6]: binds
B5: endogenous IRF3 (protein, UniProt Q14653 1-427)
chain: T2 sequence
